Experimental data from publication PMC10774353, “Multi-scale structures of the mammalian radial spoke and divergence of axonemal complexes in ependymal cilia” (Nature Communications, 2024).
These are yes or no findings as the source states them, for the method shown. For some assays here: Binding seen in cells or lysates may run through a third protein. Some entries that bind do so weakly or less than the wild type. Sequences can lack the tags named with a protein. Each block holds one binder with its values, some of them ahead of it.

Key:
Rsph4a = molecular target: T1, Rsph4a (mouse, UniProt Q8BYM7 1-716); assay: cryo-EM structure; RS head-neck complex co-expressed in HEK293F, purified by Strep-Tactin then anti-FLAG beads, cross-linked by GraFix (0-0.1% glutaraldehyde, 10-40% glycerol, 4 °C); monomer map 3.28 Å, dimer map 3.57 Å; both purified
T1 construct: Rsph4a (radial spoke head protein 4 homolog A), mouse, NM_001162957; Two copies stand in each RS head
T1 sequence: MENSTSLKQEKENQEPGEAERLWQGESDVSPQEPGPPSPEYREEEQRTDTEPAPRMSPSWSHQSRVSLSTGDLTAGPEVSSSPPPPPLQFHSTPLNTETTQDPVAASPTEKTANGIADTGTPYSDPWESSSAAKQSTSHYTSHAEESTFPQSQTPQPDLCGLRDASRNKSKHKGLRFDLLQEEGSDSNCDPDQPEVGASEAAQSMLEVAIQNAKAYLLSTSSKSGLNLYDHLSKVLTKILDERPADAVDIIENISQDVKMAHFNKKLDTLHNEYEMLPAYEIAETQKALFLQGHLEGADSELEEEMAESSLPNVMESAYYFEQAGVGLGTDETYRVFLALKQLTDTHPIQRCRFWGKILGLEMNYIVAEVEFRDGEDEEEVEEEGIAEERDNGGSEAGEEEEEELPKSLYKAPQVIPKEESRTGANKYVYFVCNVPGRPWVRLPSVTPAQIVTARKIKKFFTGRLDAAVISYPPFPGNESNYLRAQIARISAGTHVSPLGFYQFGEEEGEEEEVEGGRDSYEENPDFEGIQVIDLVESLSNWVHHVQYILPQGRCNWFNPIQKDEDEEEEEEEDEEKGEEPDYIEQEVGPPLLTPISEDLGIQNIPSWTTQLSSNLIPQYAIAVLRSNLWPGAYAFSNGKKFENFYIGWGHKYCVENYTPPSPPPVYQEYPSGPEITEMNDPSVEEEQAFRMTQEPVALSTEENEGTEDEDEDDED

FLAG-Rsph3b (mouse) = molecular target: T2, FLAG-Rsph3b (mouse) (UniProt Q9DA80); assay: co-IP; FLAG-Rsph3b co-transfected with GFP-AK8 or GFP in HEK293T for 48 h; anti-FLAG beads, 3 h at 4 °C; low-salt buffer (20 mM Tris-HCl pH 7.5, 100 mM KCl, 0.1% NP-40); eluted with FLAG peptide; blots with anti-GFP and anti-FLAG
T2 sequence: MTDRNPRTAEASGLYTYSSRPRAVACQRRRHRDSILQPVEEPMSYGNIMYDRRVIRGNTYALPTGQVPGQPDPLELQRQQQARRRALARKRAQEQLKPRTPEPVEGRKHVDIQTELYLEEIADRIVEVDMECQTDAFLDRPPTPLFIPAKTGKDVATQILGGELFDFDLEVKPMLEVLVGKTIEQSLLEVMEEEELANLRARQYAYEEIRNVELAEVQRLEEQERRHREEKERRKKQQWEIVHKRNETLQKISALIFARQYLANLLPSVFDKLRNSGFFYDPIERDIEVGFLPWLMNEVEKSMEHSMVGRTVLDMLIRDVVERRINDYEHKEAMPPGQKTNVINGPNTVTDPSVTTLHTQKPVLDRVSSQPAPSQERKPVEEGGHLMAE

binding (Rsph4a): binds
B1: Strep-Tag II-tagged Rsph1 (protein, UniProt Q8VIG3 1-301)
chain: MSDLGSEELEEEGENDLGEYEGERNEVGERHGHGKARLPNGDTYEGSYEFGKRHGQGTYKFKNGARYTGDYVKNKKHGQGTFIYPDGSRYEGEWADDQRHGQGVYYYVNNDTYTGEWFNHQRHGQGTYLYAETGSKYVGTWVHGQQEGAAELIHLNHRYQGKFMNKNPVGPGKYVFDIGCEQHGEYRLTDTERGEEEEEEETLVNIVPKWKALNITELALWTPTLSEEQPPPEGQGQEEPQGLTGVGDPSEDIQAEGFEGELEPRGADEDVDTFRQESQENSYDIDQGNLNFDEEPSDLQD

binding (FLAG-Rsph3b (mouse)): binds
B2: GFP-AK8 (protein, UniProt Q32M07 1-479)
chain: MDATTAPHRIPPEMPQYGEDYYIFEMMQNMLEQLLIHQPEDPISFMITHLRRNNDNVPKVVILGPPASGKTTIAMWLCKHLNSNLITKESLLEREFSRLSVEAKSYYQVYKKIPNSILVSLVQERLNEDDCLRKGWILDGIPERREQALMIQTLGLAPKHVIVLNAPDTVLIERNVGKRIDPVTGEIYHTTFDWPPEPEIQNRLRQPEGISEIETAKKLLEYHRHIIRILPSYPKILKTISSDQPCVDVFYQALTYVQSGHRCNAPFTPKVLLCGPLGSGKRLQATLLAQKYGLVNISCGQLLKEAVAAKSSFGELIQPFFEKRMTVPDSIITKVLADRMEQQDCIQKGWVLHGFPRDLDQARMLNSMGYNPNRVFFLSVPLDSILERLTLRRTDPVTGERFHLMYKPPPTIEVQVRLLQNPKDSEEYIKLQTDLFYRNSGDLEQYYDRAIIVNGDQDPYTVFEYIESGIINPLPRKVT
